# Results of single-concentration screens

Sequences of proteins named here, by UniProt entry; tags and fusion partners are left off. Residues count along the entry.
UniProt I6X8D2, whole entry: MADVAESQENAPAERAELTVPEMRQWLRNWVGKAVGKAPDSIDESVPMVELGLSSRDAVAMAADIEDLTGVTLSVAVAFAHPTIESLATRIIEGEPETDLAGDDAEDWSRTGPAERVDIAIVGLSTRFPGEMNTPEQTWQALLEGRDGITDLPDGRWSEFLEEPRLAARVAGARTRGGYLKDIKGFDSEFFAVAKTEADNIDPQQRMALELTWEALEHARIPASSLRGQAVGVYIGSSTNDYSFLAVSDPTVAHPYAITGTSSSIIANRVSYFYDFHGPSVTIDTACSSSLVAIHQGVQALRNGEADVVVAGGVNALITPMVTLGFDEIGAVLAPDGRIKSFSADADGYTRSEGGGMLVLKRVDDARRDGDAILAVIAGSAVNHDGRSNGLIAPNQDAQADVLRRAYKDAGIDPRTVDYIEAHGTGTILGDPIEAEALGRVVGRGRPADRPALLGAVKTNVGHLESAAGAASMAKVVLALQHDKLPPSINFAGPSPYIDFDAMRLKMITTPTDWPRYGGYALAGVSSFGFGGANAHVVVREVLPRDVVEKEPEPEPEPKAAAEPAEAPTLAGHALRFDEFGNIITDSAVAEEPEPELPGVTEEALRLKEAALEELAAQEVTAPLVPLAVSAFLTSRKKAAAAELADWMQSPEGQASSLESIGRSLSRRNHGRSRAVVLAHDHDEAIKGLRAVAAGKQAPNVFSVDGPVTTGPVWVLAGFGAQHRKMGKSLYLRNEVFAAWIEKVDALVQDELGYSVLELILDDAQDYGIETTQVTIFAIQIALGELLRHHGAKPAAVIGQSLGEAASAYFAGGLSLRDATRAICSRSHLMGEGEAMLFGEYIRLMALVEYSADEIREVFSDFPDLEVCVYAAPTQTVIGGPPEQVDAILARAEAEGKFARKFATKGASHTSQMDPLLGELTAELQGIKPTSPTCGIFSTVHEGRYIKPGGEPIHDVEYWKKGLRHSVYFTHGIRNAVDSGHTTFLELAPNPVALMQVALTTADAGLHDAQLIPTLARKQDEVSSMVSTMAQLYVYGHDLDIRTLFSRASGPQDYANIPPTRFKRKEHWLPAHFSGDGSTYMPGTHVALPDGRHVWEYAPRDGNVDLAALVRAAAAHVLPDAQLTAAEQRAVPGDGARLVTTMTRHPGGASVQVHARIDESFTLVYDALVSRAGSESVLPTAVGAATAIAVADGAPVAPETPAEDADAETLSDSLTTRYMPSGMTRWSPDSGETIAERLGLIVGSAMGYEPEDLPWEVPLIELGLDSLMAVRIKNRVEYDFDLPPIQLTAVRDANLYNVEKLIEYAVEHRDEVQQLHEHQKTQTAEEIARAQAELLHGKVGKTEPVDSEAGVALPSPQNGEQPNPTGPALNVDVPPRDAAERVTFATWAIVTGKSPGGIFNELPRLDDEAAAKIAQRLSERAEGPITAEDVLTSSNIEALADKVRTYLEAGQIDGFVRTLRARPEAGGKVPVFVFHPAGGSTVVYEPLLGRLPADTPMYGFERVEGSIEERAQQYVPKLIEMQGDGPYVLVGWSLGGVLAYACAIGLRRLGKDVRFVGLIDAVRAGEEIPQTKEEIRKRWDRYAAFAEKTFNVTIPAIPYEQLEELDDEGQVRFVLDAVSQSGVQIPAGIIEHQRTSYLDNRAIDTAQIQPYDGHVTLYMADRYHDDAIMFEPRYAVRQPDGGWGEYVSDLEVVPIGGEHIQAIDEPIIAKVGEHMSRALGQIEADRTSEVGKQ
UniProt A4I591, 1-473: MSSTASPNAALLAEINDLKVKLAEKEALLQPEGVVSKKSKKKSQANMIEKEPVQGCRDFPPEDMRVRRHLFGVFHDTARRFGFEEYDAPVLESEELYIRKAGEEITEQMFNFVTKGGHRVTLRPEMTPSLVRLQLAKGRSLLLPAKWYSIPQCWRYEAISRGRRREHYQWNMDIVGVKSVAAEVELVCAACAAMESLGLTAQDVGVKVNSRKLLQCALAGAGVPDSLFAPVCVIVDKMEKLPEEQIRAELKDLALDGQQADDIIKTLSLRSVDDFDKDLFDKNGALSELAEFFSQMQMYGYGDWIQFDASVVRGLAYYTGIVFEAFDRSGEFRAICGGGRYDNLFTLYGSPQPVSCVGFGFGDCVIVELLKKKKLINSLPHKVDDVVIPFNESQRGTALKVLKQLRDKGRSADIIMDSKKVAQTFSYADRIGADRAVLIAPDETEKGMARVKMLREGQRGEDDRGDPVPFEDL
UniProt P9WPC5, whole entry: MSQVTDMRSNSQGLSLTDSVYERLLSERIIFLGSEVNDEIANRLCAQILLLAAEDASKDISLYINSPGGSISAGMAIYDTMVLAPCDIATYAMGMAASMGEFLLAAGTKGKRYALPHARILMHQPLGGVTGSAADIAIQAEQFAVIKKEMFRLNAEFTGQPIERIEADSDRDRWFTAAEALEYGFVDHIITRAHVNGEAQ
UniProt P9WPC3, whole entry partner: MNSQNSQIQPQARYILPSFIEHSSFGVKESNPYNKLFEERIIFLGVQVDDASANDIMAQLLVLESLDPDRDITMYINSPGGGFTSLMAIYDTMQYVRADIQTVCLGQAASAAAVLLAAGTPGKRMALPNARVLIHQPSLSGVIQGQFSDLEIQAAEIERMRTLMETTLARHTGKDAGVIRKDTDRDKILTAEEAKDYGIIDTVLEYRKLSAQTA
UniProt P9WNZ1, whole entry: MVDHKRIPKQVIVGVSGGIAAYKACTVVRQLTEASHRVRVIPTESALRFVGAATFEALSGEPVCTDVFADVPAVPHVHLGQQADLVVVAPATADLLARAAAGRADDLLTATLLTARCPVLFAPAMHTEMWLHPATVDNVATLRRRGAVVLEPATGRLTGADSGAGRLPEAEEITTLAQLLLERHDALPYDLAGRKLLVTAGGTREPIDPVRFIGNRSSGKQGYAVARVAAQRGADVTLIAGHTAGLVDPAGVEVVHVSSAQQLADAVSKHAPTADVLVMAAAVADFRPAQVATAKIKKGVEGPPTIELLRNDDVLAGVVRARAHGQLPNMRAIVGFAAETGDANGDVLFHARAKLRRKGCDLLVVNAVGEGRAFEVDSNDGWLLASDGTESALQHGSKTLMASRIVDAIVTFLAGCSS

Source: ChEMBL document CHEMBL3988442, “University of Dundee, Small-Polar-MMV Screening Library” (2021).

A: 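Enzyme assay of the thioesterase domain of polyketide synthase 13; the read-out is not stated. Target: Polyketide synthase Pks13, Mycobacterium tuberculosis (UniProt I6X8D2). Concentration: 30 µM. The record gives no direction; the compounds picked for IC50 retests had high values, so higher reads as stronger inhibition. Of about 67,000 compounds tested this way, about 300 (0.46%) reached 50% or more in at least one test.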
B: 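Enzyme assay of histidyl-tRNA synthetase; the read-out is not stated. Target: Histidine-tRNA ligase, Leishmania infantum (UniProt A4I591). Concentration: 30 µM. Direction is inferred from retests: higher values go with stronger inhibition. The assay is labelled LdHisRS but filed under L. infantum. About 69,000 compounds were tested under these conditions; 0.6% (about 410) showed 50% or more at least once.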
C: 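Cell assay of Leishmania donovani living inside macrophages; the read-out is not stated. Concentration: 30 µM. Higher reads as stronger inhibition (inferred: compounds with an IC50 in retests scored well above the rest). Of about 69,000 compounds tested this way, about 1,000 (1.5%) reached 50% or more in at least one test.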
D: 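ClpP1P2, Mycobacterium tuberculosis (UniProt P9WPC5 and UniProt P9WPC3). Protease assay of ClpP1P2, read by the AMC dye that it sets free. Compounds at 50 µM. Higher reads as stronger inhibition, judged from the few compounds that gave an IC50. Most other retested compounds had strongly negative values. About 69,000 compounds were tested under these conditions; 0.015% (about 10) showed 50% or more at least once.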
E: 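Assay of Toxoplasma gondii numbers, read through their beta-galactosidase reporter with a colour substrate. Concentration: 10 µM. The record gives no direction; the compounds picked for IC50 retests had high values, so higher reads as fewer parasites. About 67,000 compounds were tested under these conditions; 0.38% (about 260) showed 50% or more at least once.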
F: 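Enzyme assay of CoaBC with a phosphate dye (Biomol Green) read at 650 nm. Target: Coenzyme A biosynthesis protein CoaBC, Mycobacterium tuberculosis (UniProt P9WNZ1). Concentration: 30 µM. Direction is inferred from only a few compounds that gave an IC50; most scored high, so higher reads as stronger inhibition. Most strong results did not repeat in a second test. About 67,000 compounds were tested under these conditions; 0.06% (about 40) showed 50% or more at least once.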

Values are the deposited “Percent Effect”, in %. How 0% and 100% were set is not recorded. Most values in the screen are low, and negative values occur. Compounds were drawn at random from those tested, without regard to their results.

CC1(Cc2ccc3c(c2)OCO3)CCCN(S(=O)(=O)N2CCOCC2)C1 (stereo not drawn) read A: 14.47%; B: 18.8%; C: 27.37%; D: -19.32%; E: 10.1%; F: 2.991%. Cn1cnc(CNC(=O)c2ccccc2-n2cc(CN)cn2)c1 read A: 3.39%; B: -2%; C: 2.84%; D: -7.512%; E: 4.036%; F: 4.585%. For COCCC(Cc1cccc(Br)c1)C(=O)N(C)C (stereo not drawn) the result was A: 1.696%; B: 9.89%; C: -1.451%; D: -3.539%; E: -19.69%; F: -3.538%. With Cc1ccc2c(c1)SCC(=O)N2CC(=O)N1CCCC1c1nccs1 (stereo not drawn) the screen gave A: -22.53%; B: 25%; C: 31.66%; D: 1.465%; E: 6.058%; F: -2.82%. COc1ncccc1NC(=O)N1CCCC1c1cc(C)no1 (stereo not drawn) gave A: -19.48%; B: 17.74%; C: 20.29%; D: 1.039%; F: 2.829%.

CSc1ccc(CNC2CCCc3c2cnn3C)cc1.Cl (stereo not drawn) read C: 12.4%; E: 2.662%. With Cc1ccc(NC(=O)c2ccc(=O)n(CC(=O)NC3CCCC3)n2)cc1 the screen gave A: -14.25%; B: 9.589%; C: 21.8%; D: -6.948%; E: -18.55%; F: -5.402%. CCCn1c(C)c(CC(=O)NCCOC)c2c1CC(C)(C)CC2=O read A: -23.06%; B: 15.29%; C: -11.28%; D: -17.61%; E: 4.353%; F: 2.03%. For Cc1noc(CN2CC(=O)N(C)c3ccccc3C2=O)n1 the result was A: -3.521%; B: 22.39%; C: 6.324%; D: -2.569%; E: 1.84%; F: 12.05%. CC(NC(=O)CN(C)S(C)(=O)=O)c1ccc(F)cc1 (stereo not drawn) read A: -23.99%; B: 4.762%; C: 25.15%; D: -11.47%; E: 0.952%; F: 0.4969%.

CCOc1cccc(CNc2ccccc2Cl)c1O gave A: 5.063%; B: 5.263%; C: 5.758%; D: 14.96%; E: -4.062%; F: 3.283%. With Fc1cnc(N2CCCC3(CN(Cc4cccs4)CCO3)C2)nc1.O=C(O)C(F)(F)F (stereo not drawn) the screen gave C: -13.69%; E: -7.436%. With CCc1ncc(CN2C[C@H]3CC[C@@H]2CN(C(=O)C2CCC2)C3)cn1 the screen gave A: -14.66%; B: 11.11%; D: 0.5312%; F: 2.657%. N#Cc1ccccc1OCCN1CCN(C(=O)C2CCCC2)CC1 gave A: 3.544%; B: 20.51%; C: -4.34%; D: -15.85%; E: -13.72%; F: -7.6%. For CCCC(=O)NC1CCCN(c2nc3ccccc3cc2CO)C1 (stereo not drawn) the result was A: 7.637%; B: 11.11%; C: 12.6%; D: -1.967%; E: -10.65%; F: -0.2433%.

Result for Cc1ccc(N2C[C@H]3OCC[C@H]3[C@H](C(=O)NC3CCCC3)C2)nn1 was B: 8.824%; D: -0.7133%; F: 5.076%. With CC(=O)N1CC(=O)N(c2cnn(C)c2)CC12CCN(CC1CC1)C2 (stereo not drawn) the screen gave A: 0.01662%; B: 3.846%; D: -11.14%; F: -2.692%. With COc1cccc(CNC[C@@]2(COc3cccnc3)C[C@@H](O)[C@@H](O)C2)c1.Cl.Cl the screen gave C: 18.64%; E: -3.688%.

Some entries from above, unchanged:

* CCCC(=O)NC1CCCN(c2nc3ccccc3cc2CO)C1 (stereo not drawn) | A: 7.637%; B: 11.11%; C: 12.6%; D: -1.967%; E: -10.65%; F: -0.2433%
* COCCC(Cc1cccc(Br)c1)C(=O)N(C)C (stereo not drawn) | A: 1.696%; B: 9.89%; C: -1.451%; D: -3.539%; E: -19.69%; F: -3.538%